These are yes or no findings as the source states them, for the method shown. Binding can be weak; no strength is given. For some assays here: Where a sequence is shown, tags or fusion partners need not be part of it. For some assays here: In cells and extracts the contact can be indirect. Each block holds one substance with its values, some of them ahead of it.
Legend:
[1] = target: T1, AmCHS (BiFC fusion) (Antirrhinum majus (snapdragon)) (UniProt P06515); assay: split reporter; BiFC in Nicotiana benthamiana leaf cells; NmVen210 and CVen210 fusions from pDOE-05, agroinfiltration, 25 °C for 2 days, confocal microscopy
T1 sequence: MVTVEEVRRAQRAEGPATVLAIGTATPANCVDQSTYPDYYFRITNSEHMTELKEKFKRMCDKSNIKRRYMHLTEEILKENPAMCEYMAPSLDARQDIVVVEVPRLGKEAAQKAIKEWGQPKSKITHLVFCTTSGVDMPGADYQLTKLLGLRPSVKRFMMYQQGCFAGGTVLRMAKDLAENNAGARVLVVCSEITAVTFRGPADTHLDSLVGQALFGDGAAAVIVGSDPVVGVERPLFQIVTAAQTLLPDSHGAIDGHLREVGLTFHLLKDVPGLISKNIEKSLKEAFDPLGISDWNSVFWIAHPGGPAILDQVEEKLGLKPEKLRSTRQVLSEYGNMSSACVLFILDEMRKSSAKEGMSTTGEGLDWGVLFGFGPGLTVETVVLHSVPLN

[2] = target: T2, AmCHS (GAL4 two-hybrid fusion) (Antirrhinum majus (snapdragon)) (UniProt P06515); assay: two-hybrid; GAL4-based (Matchmaker Gold), S. cerevisiae Y2H Gold; fusions with the GAL4 activation and DNA-binding domains; growth on -WL, -WLH and -WLHAde
T2 sequence: T1 sequence

[3] = target: T3, AmCHS-NmVen210 (Antirrhinum majus) (UniProt P06515); assay: split reporter; BiFC with NmVen210 and CVen210 fusions (pDOE-05) co-expressed in Nicotiana benthamiana leaf cells; CVen210 alone as control
T3 sequence: T1 sequence

[4] = target: T4, GmCHS-7 (GAL4 two-hybrid fusion) (Glycine max (soybean)) (UniProt P30081); assay: two-hybrid; GAL4-based (Matchmaker Gold), S. cerevisiae Y2H Gold; fusions with the GAL4 activation and DNA-binding domains; growth on -WL, -WLH and -WLHAde
T4 sequence: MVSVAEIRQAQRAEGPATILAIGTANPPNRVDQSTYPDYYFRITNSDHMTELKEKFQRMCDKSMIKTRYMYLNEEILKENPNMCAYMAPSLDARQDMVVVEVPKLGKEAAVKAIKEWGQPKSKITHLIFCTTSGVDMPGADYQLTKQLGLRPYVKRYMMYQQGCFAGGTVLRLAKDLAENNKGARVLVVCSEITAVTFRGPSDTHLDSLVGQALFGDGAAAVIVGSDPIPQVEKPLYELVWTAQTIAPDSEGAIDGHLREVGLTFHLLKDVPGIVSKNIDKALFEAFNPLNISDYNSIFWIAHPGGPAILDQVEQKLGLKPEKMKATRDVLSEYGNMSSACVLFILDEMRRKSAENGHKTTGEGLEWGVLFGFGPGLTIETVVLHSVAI

[5] = target: T5, GmCHS-1 (GAL4 two-hybrid fusion) (Glycine max (soybean)) (UniProt P24826); assay: as above
T5 sequence: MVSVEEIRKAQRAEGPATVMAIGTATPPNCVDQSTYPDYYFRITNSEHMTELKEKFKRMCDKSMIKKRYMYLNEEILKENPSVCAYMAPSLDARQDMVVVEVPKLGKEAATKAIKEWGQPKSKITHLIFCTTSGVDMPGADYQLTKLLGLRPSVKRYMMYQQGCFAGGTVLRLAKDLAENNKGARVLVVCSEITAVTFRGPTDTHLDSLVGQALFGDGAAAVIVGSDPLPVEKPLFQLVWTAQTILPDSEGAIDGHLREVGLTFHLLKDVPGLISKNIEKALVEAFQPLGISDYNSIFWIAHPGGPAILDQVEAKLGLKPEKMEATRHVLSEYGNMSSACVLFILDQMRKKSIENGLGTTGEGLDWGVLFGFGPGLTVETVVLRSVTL

[6] = target: T6, GmCHS-7-CVen210 (Glycine max) (UniProt P30081); assay: split reporter; BiFC with NmVen210 and CVen210 fusions (pDOE-05) co-expressed in Nicotiana benthamiana leaf cells; CVen210 alone as control
T6 sequence: T4 sequence

[7] = target: T7, GmCHS-1-CVen210 (Glycine max) (UniProt P24826); assay: as above
T7 sequence: T5 sequence

[8] = target: T8, His6-tagged snapdragon chalcone synthase (His6-AmCHS) (Antirrhinum majus) (UniProt P06515); assay: cross-linking; His6-AmCHIL (10 uM) and His6-AmCHS (5 uM) with BS3 (4 mM), pH 7.5, 5 min; SDS-PAGE, silver staining, immunoblots with anti-AmCHS and anti-AmCHIL IgG; both purified
T8 sequence: T1 sequence

[9] = target: T9, AtCHS (GAL4 two-hybrid fusion) (Arabidopsis thaliana) (UniProt P13114); assay: two-hybrid; GAL4-based (Matchmaker Gold), S. cerevisiae Y2H Gold; fusions with the GAL4 activation and DNA-binding domains; growth on -WL, -WLH and -WLHAde
T9 sequence: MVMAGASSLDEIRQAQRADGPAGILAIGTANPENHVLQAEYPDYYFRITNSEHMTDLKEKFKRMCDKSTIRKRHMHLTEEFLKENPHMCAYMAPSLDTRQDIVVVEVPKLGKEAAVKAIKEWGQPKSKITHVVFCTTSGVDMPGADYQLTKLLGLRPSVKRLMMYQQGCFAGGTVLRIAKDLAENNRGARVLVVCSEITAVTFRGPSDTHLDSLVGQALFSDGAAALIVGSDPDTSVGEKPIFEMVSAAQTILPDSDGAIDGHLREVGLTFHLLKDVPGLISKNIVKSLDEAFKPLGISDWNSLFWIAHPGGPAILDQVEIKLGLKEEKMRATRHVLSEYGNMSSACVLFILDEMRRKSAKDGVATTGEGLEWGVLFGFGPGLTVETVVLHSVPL

Substance: AmCHIL (BiFC fusion) (Antirrhinum majus (snapdragon))
binding [1]: binds

Substance: AmCHIL-CVen210 (Antirrhinum majus)
binding [3]: binds

Substance: GmCHIL (GAL4 two-hybrid fusion) (Glycine max (soybean))
binding [4]: binds | binding [5]: binds

Substance: InCHIL (GAL4 two-hybrid fusion) (Ipomoea nil (morning glory))
binding [9]: binds weakly

Substance: PpCHIL (GAL4 two-hybrid fusion) (Physcomitrella patens)
binding [9]: no binding

Second part, the substance after the results:

binding [2]: binds
Substance: AmCHIL (GAL4 two-hybrid fusion) (Antirrhinum majus (snapdragon))

binding [6]: binds | binding [7]: binds
Substance: GmCHIL-NmVen210 (Glycine max)

binding [8]: binds
Substance: His6-tagged snapdragon chalcone isomerase-like protein (His6-AmCHIL) (Antirrhinum majus)

binding [9]: no binding
Substance: MpCHIL (GAL4 two-hybrid fusion) (Marchantia polymorpha)
